From the supplement of paper PMC7661543
Differences between knockout arms are mostly noise.

System: MDA-MB-231
Assay: relative cell number vs DMSO control (72 h) (% of DMSO); higher = less growth inhibition (more cells)
Protocol: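 QMAP-Seq: a pool of 5 breast cancer cell lines (ZR-75-1, SKBR3, HCC-38, MDA-MB-231, BT-20), each carrying 12 doxycycline-inducible Cas9 sgRNA perturbations (11 knockouts plus non-targeting sgNT), was treated with compounds for 72 h at four 10-fold doses (10 nM-10 uM or 1 nM-1 uM range). Barcodes were amplified and sequenced, and cell number was interpolated from 293T spike-in standard curves. The result is expressed as % of the median of DMSO wells. Two biological replicates.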

O=C(/C=C/c1ccc(O)cc1)c1ccc(O)cc1O [Isoliquiritigenin]
Conditions	relative cell number
sgRNA knockout: sgATF3, 10 nM	92.8
sgRNA knockout: sgATF3, 100 nM	105
sgRNA knockout: sgATF3, 1000 nM	95.3
sgRNA knockout: sgATF3, 10000 nM	91.9
sgRNA knockout: sgATF4, 10 nM	88.7
sgRNA knockout: sgATF4, 100 nM	124
sgRNA knockout: sgATF4, 1000 nM	92.1
sgRNA knockout: sgATF4, 10000 nM	114
sgRNA knockout: sgATF6, 10 nM	98.6
sgRNA knockout: sgATF6, 100 nM	84.4
sgRNA knockout: sgATF6, 1000 nM	97.2
sgRNA knockout: sgATF6, 10000 nM	107
sgRNA knockout: sgATG7, 10 nM	105
sgRNA knockout: sgATG7, 100 nM	106
sgRNA knockout: sgATG7, 1000 nM	112
sgRNA knockout: sgATG7, 10000 nM	76.8
sgRNA knockout: sgERN1, 10 nM	111
sgRNA knockout: sgERN1, 100 nM	90.62
sgRNA knockout: sgERN1, 1000 nM	93.4
sgRNA knockout: sgERN1, 10000 nM	86.8
sgRNA knockout: sgHSF1, 10 nM	98.4
sgRNA knockout: sgHSF1, 100 nM	83.89
sgRNA knockout: sgHSF1, 1000 nM	92.9
sgRNA knockout: sgHSF1, 10000 nM	91.9
sgRNA knockout: sgHSF2, 10 nM	110
sgRNA knockout: sgHSF2, 100 nM	113
sgRNA knockout: sgHSF2, 1000 nM	108
sgRNA knockout: sgHSF2, 10000 nM	88.5
sgRNA knockout: sgKEAP1, 10 nM	87
sgRNA knockout: sgKEAP1, 100 nM	97.7
sgRNA knockout: sgKEAP1, 1000 nM	93.7
sgRNA knockout: sgKEAP1, 10000 nM	83.4
sgRNA knockout: sgNFE2L2, 10 nM	84.1
sgRNA knockout: sgNFE2L2, 100 nM	93.1
sgRNA knockout: sgNFE2L2, 1000 nM	80.2
sgRNA knockout: sgNFE2L2, 10000 nM	88.3
sgRNA knockout: sgSLC35F2, 10 nM	98.6
sgRNA knockout: sgSLC35F2, 100 nM	103
sgRNA knockout: sgSLC35F2, 1000 nM	89.61
sgRNA knockout: sgSLC35F2, 10000 nM	87
sgRNA knockout: sgXBP1, 10 nM	117
sgRNA knockout: sgXBP1, 100 nM	101
sgRNA knockout: sgXBP1, 1000 nM	92.5
sgRNA knockout: sgXBP1, 10000 nM	93.8

Cc1ccc(S(=O)(=O)OCC(=O)Nc2ccc(C(=O)O)c(O)c2)cc1
Conditions	relative cell number
sgRNA knockout: sgATF3, 10 nM	117
sgRNA knockout: sgATF3, 100 nM	89.1
sgRNA knockout: sgATF3, 1000 nM	121
sgRNA knockout: sgATF3, 10000 nM	99.7
sgRNA knockout: sgATF4, 10 nM	97.5
sgRNA knockout: sgATF4, 100 nM	130
sgRNA knockout: sgATF4, 1000 nM	120
sgRNA knockout: sgATF4, 10000 nM	102
sgRNA knockout: sgATF6, 10 nM	117
sgRNA knockout: sgATF6, 100 nM	84.7
sgRNA knockout: sgATF6, 1000 nM	103
sgRNA knockout: sgATF6, 10000 nM	91.1
sgRNA knockout: sgATG7, 10 nM	106
sgRNA knockout: sgATG7, 100 nM	88
sgRNA knockout: sgATG7, 1000 nM	95.5
sgRNA knockout: sgATG7, 10000 nM	85.9
sgRNA knockout: sgERN1, 10 nM	173
sgRNA knockout: sgERN1, 100 nM	92.7
sgRNA knockout: sgERN1, 1000 nM	90.9
sgRNA knockout: sgERN1, 10000 nM	97.5
sgRNA knockout: sgHSF1, 10 nM	109
sgRNA knockout: sgHSF1, 100 nM	95.9
sgRNA knockout: sgHSF1, 1000 nM	81.2
sgRNA knockout: sgHSF1, 10000 nM	75.9
sgRNA knockout: sgHSF2, 10 nM	144
sgRNA knockout: sgHSF2, 100 nM	89.6
sgRNA knockout: sgHSF2, 1000 nM	86.5
sgRNA knockout: sgHSF2, 10000 nM	96.1
sgRNA knockout: sgKEAP1, 10 nM	98.7
sgRNA knockout: sgKEAP1, 100 nM	83.3
sgRNA knockout: sgKEAP1, 1000 nM	106.7
sgRNA knockout: sgKEAP1, 10000 nM	82.1
sgRNA knockout: sgNFE2L2, 10 nM	116.1
sgRNA knockout: sgNFE2L2, 100 nM	85.9
sgRNA knockout: sgNFE2L2, 1000 nM	109
sgRNA knockout: sgNFE2L2, 10000 nM	82.7
sgRNA knockout: sgSLC35F2, 10 nM	127
sgRNA knockout: sgSLC35F2, 100 nM	73.8
sgRNA knockout: sgSLC35F2, 1000 nM	94.9
sgRNA knockout: sgSLC35F2, 10000 nM	96.6
sgRNA knockout: sgXBP1, 10 nM	106
sgRNA knockout: sgXBP1, 100 nM	108
sgRNA knockout: sgXBP1, 1000 nM	101
sgRNA knockout: sgXBP1, 10000 nM	85.5
